Measurements: EPA's CvTdb concentration-time database

What was measured:
Rat [1] = experiment: concentration in plasma after dosing; conditions: dosed: Benzophenone, 10 mg/kg, oral, Female, F344
Rat [2] = experiment: concentration in blood after dosing; conditions: 0.25 h; dosed: Benzophenone; 10 mg/kg; oral; Male; F344
Rat [3] = experiment: concentration in blood after dosing; conditions: 5 min; dosed: Benzophenone; 5 mg/kg; oral; Male; F344
Rat [4] = experiment: concentration in blood after dosing; conditions: 0.125 h; dosed: Benzophenone; 5 mg/kg; oral; Male; F344
Rat [5] = experiment: concentration in plasma after dosing; conditions: dosed: Benzophenone, 10 mg/kg, oral, Female, F344; remark: listed apart in the source
Mouse [6] = experiment: concentration in plasma after dosing; conditions: 10 min; dosed: Benzophenone; 30 mg/kg; oral; Male; B6C3F1
Rat [7] = experiment: concentration in plasma after dosing; conditions: dosed: Benzophenone, 10 mg/kg, oral, Female, F344; remark: listed apart in the source
Mouse [8] = experiment: concentration in plasma after dosing; conditions: 20 min; dosed: Benzophenone; 15 mg/kg; iv; Female; B6C3F1
Mouse [9] = experiment: concentration in plasma after dosing; conditions: dosed: Benzophenone, B6C3F1
Mouse [10] = experiment: concentration in plasma after dosing; conditions: 1 h; dosed: Benzophenone; 30 mg/kg; oral; Male; B6C3F1
Rat [11] = experiment: concentration in blood after dosing; conditions: 0.25 h; dosed: Benzophenone; 10 mg/kg; oral; Female; F344
Mouse [12] = experiment: concentration in plasma after dosing; conditions: 20 min; dosed: Benzophenone; 15 mg/kg; iv; Male; B6C3F1
Mouse [13] = experiment: concentration in plasma after dosing; conditions: 1 h; dosed: Benzophenone; 60 mg/kg; oral; Male; B6C3F1
Mouse [14] = experiment: concentration in plasma after dosing; conditions: 0.25 h; dosed: Benzophenone; 15 mg/kg; iv; Male; B6C3F1
Mouse [15] = experiment: concentration in plasma after dosing; conditions: 6 h; dosed: Benzophenone; 60 mg/kg; oral; Male; B6C3F1
Mouse [16] = experiment: concentration in plasma after dosing; conditions: 2 h; dosed: Benzophenone; 15 mg/kg; iv; Female; B6C3F1
Mouse [17] = experiment: concentration in plasma after dosing; conditions: 2 h; dosed: Benzophenone; 30 mg/kg; oral; Male; B6C3F1
Mouse [18] = experiment: concentration in plasma after dosing; conditions: 2.5 min; dosed: Benzophenone; 30 mg/kg; oral; Male; B6C3F1

O=C(c1ccccc1)c1ccccc1 [Benzophenone]
Conditions | concentration in plasma [ng/mL]
Rat [1], 0.125 h | 527
Rat [1], 3 h | 74.6
Rat [5], 1 h | 286
Rat [5], 2.5 min | 119
Rat [7], 6 h | 152
Rat [7], 10 min | 383

Conditions | concentration in blood [ng/mL] | concentration in plasma [ng/mL]
Mouse [6] | – | 1350
Mouse [8] | – | 1680
Mouse [10] | – | 252
Mouse [12] | – | 1760
Mouse [13] | – | 661
Mouse [14] | – | 3590
Mouse [15] | – | 57.9
Mouse [16] | – | 97.9
Mouse [17] | – | 162
Mouse [18] | – | 1590
Rat [2] | 1280 | –
Rat [3] | 256 | –
Rat [4] | 306 | –
Rat [11] | 1150 | –

concentration in plasma [ng/mL], Mouse [9]
Conditions | Female | Male
0.125 h, 15 mg/kg, oral | 801 | 741
0.125 h, 30 mg/kg, oral | 1080 | 1430
0.125 h, 60 mg/kg, oral | 2360 | 2410
0.25 h, 15 mg/kg, iv | 2340 | 3350
0.25 h, 15 mg/kg, oral | 385 | 490
0.25 h, 30 mg/kg, oral | 772 | 1320
0.25 h, 60 mg/kg, oral | 2930 | 2290
0.5 h, 15 mg/kg, iv | 1530 | 1280
0.5 h, 15 mg/kg, oral | 212 | 237
0.5 h, 30 mg/kg, oral | 402 | 834
0.5 h, 60 mg/kg, oral | 1640 | 1460
0.75 h, 15 mg/kg, iv | 575 | 699
0.75 h, 15 mg/kg, oral | 179 | 216
1 h, 15 mg/kg, iv | 309 | 384
1 h, 15 mg/kg, oral | 139 | 139
1 h, 30 mg/kg, oral | 342 | 274
1 h, 60 mg/kg, oral | 1040 | 736
1.25 h, 15 mg/kg, iv | 201 | 269
1.5 h, 15 mg/kg, iv | 224 | 149
1.5 h, 15 mg/kg, oral | 152 | 46.1
1.5 h, 30 mg/kg, oral | 174 | 187
2 h, 15 mg/kg, iv | 135 | 137
2 h, 15 mg/kg, oral | 61.8 | 29.3
2 h, 30 mg/kg, oral | 170 | 124
2 h, 60 mg/kg, oral | 502 | 936
2.5 h, 15 mg/kg, iv | 119 | 60.5
2.5 min, 15 mg/kg, oral | 351 | 172
2.5 min, 30 mg/kg, oral | 390 | 1420
2.5 min, 60 mg/kg, oral | 546 | 952
3 h, 15 mg/kg, iv | 66.8 | 26.7
3 h, 15 mg/kg, oral | 76.1 | 18.2
3 h, 30 mg/kg, oral | 51.1 | 36.4
3 h, 60 mg/kg, oral | 254 | 149
4 h, 15 mg/kg, oral | 28.1 | 13.8
4 min, 15 mg/kg, iv | 4180 | 4630
5 min, 15 mg/kg, oral | 602 | 496
5 min, 30 mg/kg, oral | 444 | 1590
5 min, 60 mg/kg, oral | 1680 | 5730
6 h, 15 mg/kg, oral | 26.1 | 77.6
6 h, 30 mg/kg, oral | 27.1 | 36.4
6 h, 60 mg/kg, oral | 133 | 59.6
7 min, 15 mg/kg, iv | 3740 | 2700
8 h, 30 mg/kg, oral | – | 41.6
10 h, 30 mg/kg, oral | – | 12
10 h, 60 mg/kg, oral | 12.8 | 10.3
10 min, 15 mg/kg, iv | 2160 | 3420
10 min, 15 mg/kg, oral | 527 | 502
10 min, 30 mg/kg, oral | 691 | 587
10 min, 60 mg/kg, oral | 1750 | 3100
20 min, 15 mg/kg, iv | 1510 | 1460
